Data from the supplement of paper PMC10849652.
The list shows a part of the results.

Chains of the proteins cited; added tags and fusions are not shown. Lines headed by an entry give the natural chain unless they say otherwise; changes in a name come on top.
UniProt Q7Z3B0: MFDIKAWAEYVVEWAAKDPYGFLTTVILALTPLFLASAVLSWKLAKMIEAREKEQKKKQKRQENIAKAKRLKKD
UniProt Q9NWM0: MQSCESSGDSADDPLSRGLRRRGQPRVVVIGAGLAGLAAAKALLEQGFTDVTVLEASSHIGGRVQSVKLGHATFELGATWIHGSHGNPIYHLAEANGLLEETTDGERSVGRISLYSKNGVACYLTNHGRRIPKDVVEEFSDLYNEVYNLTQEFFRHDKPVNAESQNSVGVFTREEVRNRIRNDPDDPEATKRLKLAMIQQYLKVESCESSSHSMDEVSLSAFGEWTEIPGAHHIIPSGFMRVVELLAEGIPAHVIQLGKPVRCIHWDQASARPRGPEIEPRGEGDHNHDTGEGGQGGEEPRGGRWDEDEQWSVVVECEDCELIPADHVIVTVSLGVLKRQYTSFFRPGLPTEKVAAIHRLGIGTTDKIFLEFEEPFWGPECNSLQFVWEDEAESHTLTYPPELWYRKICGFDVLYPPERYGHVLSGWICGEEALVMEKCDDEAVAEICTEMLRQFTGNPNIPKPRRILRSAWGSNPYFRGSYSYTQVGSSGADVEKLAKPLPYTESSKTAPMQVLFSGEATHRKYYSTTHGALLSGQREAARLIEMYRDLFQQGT
UniProt Q9H7B4: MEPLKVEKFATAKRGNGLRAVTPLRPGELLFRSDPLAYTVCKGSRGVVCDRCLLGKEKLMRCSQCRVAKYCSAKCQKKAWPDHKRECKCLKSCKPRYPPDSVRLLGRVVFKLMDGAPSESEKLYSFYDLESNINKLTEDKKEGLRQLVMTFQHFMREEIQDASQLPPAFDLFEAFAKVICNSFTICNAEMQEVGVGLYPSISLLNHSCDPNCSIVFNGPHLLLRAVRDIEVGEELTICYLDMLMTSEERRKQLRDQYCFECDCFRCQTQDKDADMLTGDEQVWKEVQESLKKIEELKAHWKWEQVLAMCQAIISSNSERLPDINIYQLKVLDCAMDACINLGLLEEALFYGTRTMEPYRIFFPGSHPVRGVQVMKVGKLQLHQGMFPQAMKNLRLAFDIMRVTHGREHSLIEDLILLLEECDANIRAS
UniProt Q6STE5, whole entry, looked up: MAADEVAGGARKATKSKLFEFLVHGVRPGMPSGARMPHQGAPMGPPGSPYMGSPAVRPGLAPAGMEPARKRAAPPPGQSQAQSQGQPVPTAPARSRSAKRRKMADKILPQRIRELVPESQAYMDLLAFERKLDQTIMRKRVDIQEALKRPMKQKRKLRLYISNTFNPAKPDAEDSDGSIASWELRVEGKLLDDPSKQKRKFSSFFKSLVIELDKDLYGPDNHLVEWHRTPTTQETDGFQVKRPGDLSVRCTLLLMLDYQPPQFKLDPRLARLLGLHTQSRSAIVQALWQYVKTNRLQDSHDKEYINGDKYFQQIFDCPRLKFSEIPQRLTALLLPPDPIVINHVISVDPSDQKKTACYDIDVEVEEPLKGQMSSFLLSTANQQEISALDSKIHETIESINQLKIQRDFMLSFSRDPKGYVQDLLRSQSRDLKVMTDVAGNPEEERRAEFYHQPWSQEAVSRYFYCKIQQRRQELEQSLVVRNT
UniProt O60493, whole entry, looked up: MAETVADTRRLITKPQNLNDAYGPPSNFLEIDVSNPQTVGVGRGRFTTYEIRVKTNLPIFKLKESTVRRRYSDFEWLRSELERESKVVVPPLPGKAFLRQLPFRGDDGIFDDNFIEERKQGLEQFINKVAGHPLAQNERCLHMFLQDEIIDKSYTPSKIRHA
UniProt Q9Y5W9: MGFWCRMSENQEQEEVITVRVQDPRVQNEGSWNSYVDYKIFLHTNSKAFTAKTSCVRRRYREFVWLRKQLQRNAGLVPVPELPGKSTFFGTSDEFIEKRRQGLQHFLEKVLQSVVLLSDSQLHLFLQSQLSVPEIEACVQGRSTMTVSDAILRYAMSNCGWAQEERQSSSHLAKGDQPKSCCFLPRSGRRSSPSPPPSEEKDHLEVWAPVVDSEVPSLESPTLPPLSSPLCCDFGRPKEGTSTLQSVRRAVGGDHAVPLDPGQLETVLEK
UniProt Q9BT81: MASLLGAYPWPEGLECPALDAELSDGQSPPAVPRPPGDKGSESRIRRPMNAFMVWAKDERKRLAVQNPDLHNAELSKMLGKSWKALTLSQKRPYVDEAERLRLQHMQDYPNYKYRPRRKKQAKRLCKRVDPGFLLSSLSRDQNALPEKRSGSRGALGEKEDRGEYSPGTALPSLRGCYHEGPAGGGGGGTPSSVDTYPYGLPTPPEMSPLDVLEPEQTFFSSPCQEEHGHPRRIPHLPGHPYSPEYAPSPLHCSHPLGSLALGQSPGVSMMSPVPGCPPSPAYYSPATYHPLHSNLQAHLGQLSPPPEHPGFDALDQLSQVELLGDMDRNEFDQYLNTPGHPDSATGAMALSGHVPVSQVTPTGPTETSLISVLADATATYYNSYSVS
UniProt Q9Y5X3: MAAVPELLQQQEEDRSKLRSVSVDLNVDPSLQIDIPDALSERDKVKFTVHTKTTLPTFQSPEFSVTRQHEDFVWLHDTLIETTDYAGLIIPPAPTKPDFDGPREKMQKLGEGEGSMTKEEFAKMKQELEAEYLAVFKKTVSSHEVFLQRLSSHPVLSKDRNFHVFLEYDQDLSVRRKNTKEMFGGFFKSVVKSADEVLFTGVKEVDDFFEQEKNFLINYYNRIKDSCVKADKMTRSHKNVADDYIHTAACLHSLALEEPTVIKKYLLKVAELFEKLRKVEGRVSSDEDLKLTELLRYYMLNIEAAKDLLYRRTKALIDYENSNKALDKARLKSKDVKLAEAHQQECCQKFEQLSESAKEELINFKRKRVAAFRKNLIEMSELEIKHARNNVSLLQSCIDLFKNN
UniProt Q9NRS6: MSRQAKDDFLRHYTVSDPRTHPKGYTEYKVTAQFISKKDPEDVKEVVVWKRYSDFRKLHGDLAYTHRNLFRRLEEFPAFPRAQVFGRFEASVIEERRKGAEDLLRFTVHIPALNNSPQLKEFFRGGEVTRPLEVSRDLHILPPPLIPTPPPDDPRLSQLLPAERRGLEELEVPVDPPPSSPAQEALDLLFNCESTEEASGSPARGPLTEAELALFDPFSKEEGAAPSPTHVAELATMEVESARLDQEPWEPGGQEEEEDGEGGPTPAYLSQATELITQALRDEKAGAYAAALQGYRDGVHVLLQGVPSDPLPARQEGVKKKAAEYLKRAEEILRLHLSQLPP
UniProt P51532, whole entry, looked up: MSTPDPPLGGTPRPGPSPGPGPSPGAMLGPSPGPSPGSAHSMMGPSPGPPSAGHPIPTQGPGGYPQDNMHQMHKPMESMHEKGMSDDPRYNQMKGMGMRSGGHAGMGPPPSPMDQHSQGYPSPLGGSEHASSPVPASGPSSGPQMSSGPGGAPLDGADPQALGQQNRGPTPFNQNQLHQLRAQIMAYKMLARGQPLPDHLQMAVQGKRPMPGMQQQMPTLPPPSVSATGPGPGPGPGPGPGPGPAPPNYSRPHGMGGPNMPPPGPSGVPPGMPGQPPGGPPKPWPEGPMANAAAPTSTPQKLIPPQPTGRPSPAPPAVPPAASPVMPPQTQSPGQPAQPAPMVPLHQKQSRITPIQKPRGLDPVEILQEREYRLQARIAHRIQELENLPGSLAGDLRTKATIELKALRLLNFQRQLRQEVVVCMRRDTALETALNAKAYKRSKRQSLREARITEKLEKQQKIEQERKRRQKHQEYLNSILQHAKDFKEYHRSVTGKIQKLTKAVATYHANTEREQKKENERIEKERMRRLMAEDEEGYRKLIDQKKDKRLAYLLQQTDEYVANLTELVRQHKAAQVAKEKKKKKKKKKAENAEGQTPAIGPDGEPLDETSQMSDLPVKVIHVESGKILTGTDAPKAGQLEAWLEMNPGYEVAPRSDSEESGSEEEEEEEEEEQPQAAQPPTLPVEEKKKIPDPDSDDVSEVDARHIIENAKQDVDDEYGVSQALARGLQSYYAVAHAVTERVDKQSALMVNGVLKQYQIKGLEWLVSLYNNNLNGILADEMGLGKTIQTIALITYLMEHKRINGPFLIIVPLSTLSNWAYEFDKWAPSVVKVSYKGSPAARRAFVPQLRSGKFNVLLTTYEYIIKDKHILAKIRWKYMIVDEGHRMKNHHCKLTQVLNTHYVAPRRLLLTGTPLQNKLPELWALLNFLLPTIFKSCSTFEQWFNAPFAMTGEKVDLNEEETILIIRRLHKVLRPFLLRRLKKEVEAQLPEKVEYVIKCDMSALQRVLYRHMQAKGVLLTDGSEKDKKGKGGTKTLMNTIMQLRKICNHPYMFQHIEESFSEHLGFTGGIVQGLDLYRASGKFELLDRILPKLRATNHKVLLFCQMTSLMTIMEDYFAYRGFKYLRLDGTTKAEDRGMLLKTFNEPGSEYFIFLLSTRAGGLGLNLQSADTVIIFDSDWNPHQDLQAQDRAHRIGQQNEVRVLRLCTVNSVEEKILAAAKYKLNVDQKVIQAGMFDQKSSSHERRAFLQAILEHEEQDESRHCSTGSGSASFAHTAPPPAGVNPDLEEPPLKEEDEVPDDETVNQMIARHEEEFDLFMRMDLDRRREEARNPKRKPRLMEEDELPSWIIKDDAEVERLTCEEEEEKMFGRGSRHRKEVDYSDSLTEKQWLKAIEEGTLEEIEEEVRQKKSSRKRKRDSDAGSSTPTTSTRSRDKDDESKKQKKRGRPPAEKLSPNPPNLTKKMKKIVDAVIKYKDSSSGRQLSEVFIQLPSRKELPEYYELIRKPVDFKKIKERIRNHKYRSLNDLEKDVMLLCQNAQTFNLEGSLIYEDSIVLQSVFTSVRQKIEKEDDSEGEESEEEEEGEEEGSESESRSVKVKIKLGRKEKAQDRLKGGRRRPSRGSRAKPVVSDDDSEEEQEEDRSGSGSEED
UniProt Q9UMY4: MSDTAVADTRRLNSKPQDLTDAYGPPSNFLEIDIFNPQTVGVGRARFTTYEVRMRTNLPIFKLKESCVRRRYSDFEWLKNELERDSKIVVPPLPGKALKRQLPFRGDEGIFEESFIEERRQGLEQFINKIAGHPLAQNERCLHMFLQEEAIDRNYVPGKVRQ
UniProt Q8IYR2: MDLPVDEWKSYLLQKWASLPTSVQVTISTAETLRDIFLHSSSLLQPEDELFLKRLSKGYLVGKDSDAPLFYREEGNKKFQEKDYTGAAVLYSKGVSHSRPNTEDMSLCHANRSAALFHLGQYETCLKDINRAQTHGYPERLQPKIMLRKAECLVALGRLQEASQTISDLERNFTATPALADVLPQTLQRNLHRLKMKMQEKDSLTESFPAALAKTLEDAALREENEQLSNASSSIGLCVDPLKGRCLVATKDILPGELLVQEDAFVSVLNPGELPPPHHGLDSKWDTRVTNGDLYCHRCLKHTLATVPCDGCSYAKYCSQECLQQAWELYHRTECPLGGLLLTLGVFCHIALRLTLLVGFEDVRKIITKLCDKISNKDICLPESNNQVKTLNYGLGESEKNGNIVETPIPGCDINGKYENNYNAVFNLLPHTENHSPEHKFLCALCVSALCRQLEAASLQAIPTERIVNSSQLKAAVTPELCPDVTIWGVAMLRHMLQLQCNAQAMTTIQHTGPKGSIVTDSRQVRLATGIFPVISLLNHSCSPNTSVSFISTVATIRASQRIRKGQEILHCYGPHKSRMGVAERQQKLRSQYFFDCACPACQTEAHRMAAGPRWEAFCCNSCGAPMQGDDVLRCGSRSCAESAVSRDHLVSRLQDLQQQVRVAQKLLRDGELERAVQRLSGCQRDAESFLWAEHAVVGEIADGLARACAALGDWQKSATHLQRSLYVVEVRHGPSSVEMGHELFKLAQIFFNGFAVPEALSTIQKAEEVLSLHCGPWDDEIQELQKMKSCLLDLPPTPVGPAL
UniProt Q9NXE4: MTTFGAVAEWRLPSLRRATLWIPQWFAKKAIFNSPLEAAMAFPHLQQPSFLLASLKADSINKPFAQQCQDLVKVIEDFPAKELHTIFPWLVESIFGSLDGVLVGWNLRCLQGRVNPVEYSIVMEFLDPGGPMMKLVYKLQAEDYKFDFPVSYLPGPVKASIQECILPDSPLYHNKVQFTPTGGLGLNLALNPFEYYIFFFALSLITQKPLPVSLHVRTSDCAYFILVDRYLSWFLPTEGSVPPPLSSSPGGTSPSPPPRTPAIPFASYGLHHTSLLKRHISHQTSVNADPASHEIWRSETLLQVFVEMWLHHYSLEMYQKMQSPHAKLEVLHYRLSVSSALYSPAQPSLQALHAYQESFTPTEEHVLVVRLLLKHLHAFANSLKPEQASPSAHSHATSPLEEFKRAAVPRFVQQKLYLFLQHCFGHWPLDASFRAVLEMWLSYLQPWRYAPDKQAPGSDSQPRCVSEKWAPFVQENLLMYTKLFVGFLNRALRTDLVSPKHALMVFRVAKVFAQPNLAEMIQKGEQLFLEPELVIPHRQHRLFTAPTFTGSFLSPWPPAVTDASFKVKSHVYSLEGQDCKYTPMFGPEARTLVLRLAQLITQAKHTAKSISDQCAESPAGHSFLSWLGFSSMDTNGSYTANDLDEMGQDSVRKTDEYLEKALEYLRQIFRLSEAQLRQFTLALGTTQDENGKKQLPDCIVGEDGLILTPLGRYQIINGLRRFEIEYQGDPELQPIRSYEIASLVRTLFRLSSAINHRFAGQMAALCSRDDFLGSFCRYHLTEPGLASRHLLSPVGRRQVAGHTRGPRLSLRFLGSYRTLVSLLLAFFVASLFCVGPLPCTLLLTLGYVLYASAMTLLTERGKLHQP

Key:
Assay in all cases: log2 fold change, soluble protein after heating vs DMSO (PISA); higher = thermal stabilisation; K562 lysate, 10 uM; active = over 0.2 and 3.5 SD of the protein, either way, in both replicates (recomputed)
erlotinib = compound: C#Cc1cccc(Nc2ncnc3cc(OCCOC)c(OCCOC)cc23)c1 [erlotinib]
Method in brief: (§1)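 Log-two fold change in thermal stability relative to solvent controls is reported from duplicates. For each sample, crude K562 extract from dounce-homogenised pellets in PBS pH 7.4 with 1 mM MgCl2, at 1 mg/mL protein, was treated with 10 μM compound for 30 min. Aliquots heated for 3 min across 48°C-58°C were pooled, brought to 0.5% NP-40 at 4°C and cleared at 21,000xg for 90 min. The supernatant was quantified by TMTpro 16plex LC-MS/MS with channel sums equalised.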

[1] = compound: C/C(=N\NC(=O)C1=CC(=CC=C1)S(=O)(=O)N2CCOCC2)/C3=C(C=CC(=C3)Cl)O
Method in brief: as §1

[2] = compound: C1=CC(=CC=C1C2=NC3=C(N2)C=C(C=C3)C(=O)N)OC4=CC=C(C=C4)Cl
Method in brief: as §1

[3] = compound: C1=CC2=C(C=CC(=C2)/C=C\3/C(=O)NC(=NCC4=CC=CS4)S3)N=C1
Method in brief: as §1

[4] = compound: C1=CC2=NC=CN=C2C=C1/C=C/3\C(=O)NC(=O)S3
Method in brief: as §1

[5] = compound: C1=CC=C(C=C1)C2=NC(=C(N2)C3=CC=NC=C3)C4=CC(=C(C=C4)Cl)O
Method in brief: as §1

[6] = compound: C1=CC=C2C(=C1)C3=NNC4=CC=CC(=C43)C2=O
Method in brief: as §1

[7] = compound: C1CCN(C1)C(=O)NC2=CC=CC(=C2)NC3=NC=C(C(=N3)NCCC4=CN=CN4)Br
Method in brief: as §1

[8] = compound: C1CN(CCC1(CC2=CC=C(C=C2)Cl)N)C3=NC=NC4=C3C=CN4
Method in brief: as §1

IRAK-1-4 Inhibitor I = compound: C1COCCN1CCN2C3=CC=CC=C3N=C2NC(=O)C4=CC(=CC=C4)[N+](=O)[O-] [IRAK-1-4 Inhibitor I]
Method in brief: as §1

Measured: log2 fold change

SNRPA (UniProt P09012)
inactive: erlotinib -0.011 | [1] 0.004 | [2] 0.034 | [3] -0.005 | [4] -0.008 | [5] 0.007 | [6] -0.027 | [7] 0.005 | [8] -0.013 | IRAK-1-4 Inhibitor I 0

SNX2 (UniProt O60749)
inactive: erlotinib 0.003 | [1] -0.059 | [2] 0.004 | [3] 0.009 | [4] -0.025 | [5] -0.042 | [6] -0.069 | [7] 0 | [8] -0.008 | IRAK-1-4 Inhibitor I -0.019

SMIM15 (UniProt Q7Z3B0)
inactive: erlotinib 0.003 | [1] 0.118 | [2] 0.008 | [3] -0.089 | [5] -0.067 | [6] 0.055 | [7] 0.016 | [8] 0.024 | IRAK-1-4 Inhibitor I 0.181

SP6 (UniProt Q3SY56)
inactive: erlotinib 0.034 | [1] 0.05 | [2] 0.033 | [3] -0.104 | [5] 0.023 | [6] 0.073 | [7] 0.05 | [8] 0.071 | IRAK-1-4 Inhibitor I 0.069

SORBS3 (UniProt O60504)
inactive: erlotinib -0.01 | [1] 0.028 | [2] 0.021 | [3] 0.018 | [4] -0.054 | [5] -0.092 | [6] 0.057 | [7] 0.09 | [8] 0.129 | IRAK-1-4 Inhibitor I 0.088

SMOX isoform 6 (UniProt Q9NWM0)
inactive: erlotinib 0.118 | [2] 0.024

SMYD3 (UniProt Q9H7B4)
inactive: erlotinib 0.094 | [1] 0.104 | [2] 0.009 | [3] -0.036 | [4] 0.064 | [5] -0.021 | [6] -0.036 | [7] -0.022 | [8] -0.038 | IRAK-1-4 Inhibitor I 0.001

SMC3 (UniProt Q9UQE7)
inactive: erlotinib -0.01 | [1] 0.018 | [2] -0.004 | [3] 0.018 | [4] -0.013 | [5] 0.002 | [6] 0.023 | [7] -0.007 | [8] -0.016 | IRAK-1-4 Inhibitor I -0.009

SMARCD3 (UniProt Q6STE5)
inactive: erlotinib -0.017 | [2] 0.052

Copied from the results shown (two entries):
SORBS3 (UniProt O60504)
inactive: erlotinib -0.01 | [1] 0.028 | [2] 0.021 | [3] 0.018 | [4] -0.054 | [5] -0.092 | [6] 0.057 | [7] 0.09 | [8] 0.129 | IRAK-1-4 Inhibitor I 0.088

SMOX isoform 6 (UniProt Q9NWM0)
inactive: erlotinib 0.118 | [2] 0.024

Additional entries:

SNX3 (UniProt O60493)
inactive: erlotinib -0.044 | [1] 0.018 | [2] -0.021 | [3] 0.009 | [4] 0.004 | [5] -0.002 | [6] 0.003 | [7] -0.006 | [8] -0.024 | IRAK-1-4 Inhibitor I -0.003

SNAP47 (UniProt Q5SQN1)
inactive: erlotinib -0.017 | [2] -0.21 | [4] -0.097 | [5] 0.027 | [7] 0.019 | [8] -0.142 | IRAK-1-4 Inhibitor I 0.089

SNRPD3 (UniProt P62318)
inactive: erlotinib 0.017 | [1] 0.021 | [2] 0.016 | [3] -0.057 | [4] 0.013 | [5] -0.013 | [6] 0.033 | [7] 0.019 | [8] 0.044 | IRAK-1-4 Inhibitor I 0.026

SOAT1 (UniProt P35610)
inactive: erlotinib 0.06 | [1] -0.007 | [2] -0.042 | [3] 0 | [4] -0.048 | [5] 0.056 | [6] -0.058 | [7] -0.056 | [8] -0.019 | IRAK-1-4 Inhibitor I 0

SNX11 (UniProt Q9Y5W9)
inactive: erlotinib 0.01 | [1] 0.072 | [2] 0.043 | [3] -0.017 | [4] -0.039 | [5] 0.008 | [6] -0.035 | [7] -0.069 | [8] 0.024 | IRAK-1-4 Inhibitor I 0.008

SOX7 isoform 2 (UniProt Q9BT81)
inactive: erlotinib -0.047 | [1] -0.085 | [2] 0.174 | [3] -0.039 | [4] -0.073 | [5] 0.154 | [6] 0.013 | IRAK-1-4 Inhibitor I -0.076

SNTB2 (UniProt Q13425)
inactive: erlotinib 0.06 | [1] -0.066 | [2] -0.041 | [3] 0.092 | [4] 0.03 | [5] -0.001 | [6] -0.09 | [7] -0.012 | [8] -0.009 | IRAK-1-4 Inhibitor I 0.05

SNX5 (UniProt Q9Y5X3)
inactive: erlotinib -0.014 | [1] 0.043 | [2] -0.01 | [3] -0.002 | [4] -0.018 | [5] 0.004 | [6] -0.006 | [7] -0.019 | [8] -0.043 | IRAK-1-4 Inhibitor I -0.002

SMIM13 (UniProt P0DJ93)
inactive: erlotinib -0.014 | [2] 0.057

SMARCC1 (UniProt Q92922)
inactive: erlotinib 0.006 | [1] -0.032 | [2] 0.032 | [3] 0.01 | [4] -0.009 | [5] 0.029 | [6] -0.052 | [7] -0.007 | [8] 0.008 | IRAK-1-4 Inhibitor I -0.005

SNX15 (UniProt Q9NRS6)
inactive: erlotinib -0.074 | [1] -0.097 | [2] -0.044 | [3] -0.048 | [4] 0.012 | [5] -0.002 | [6] 0.008 | [7] 0.01 | [8] 0.013 | IRAK-1-4 Inhibitor I -0.01

SMARCA4 (UniProt P51532)
inactive: erlotinib -0.01 | [1] -0.018 | [2] -0.021 | [3] 0.011 | [4] -0.001 | [5] -0.003 | [6] -0.017 | [7] -0.003 | [8] -0.024 | IRAK-1-4 Inhibitor I -0.025

SNRPA1 (UniProt P09661)
inactive: erlotinib -0.047 | [1] 0.042 | [2] -0.012 | [3] 0.008 | [4] -0.007 | [5] -0.034 | [6] -0.001 | [7] -0.013 | [8] -0.022 | IRAK-1-4 Inhibitor I -0.01

SNX12 isoform 1 (UniProt Q9UMY4)
inactive: erlotinib -0.006 | [1] 0.03 | [2] -0.013 | [3] -0.037 | [4] -0.006 | [5] 0.006 | [6] 0.012 | [7] -0.004 | [8] 0.022 | IRAK-1-4 Inhibitor I -0.003

SNX18 isoform 2 (UniProt Q96RF0)
inactive: erlotinib 0.064 | [1] 0.104 | [2] -0.056 | [3] -0.134 | [6] 0.013 | [7] -0.054 | [8] -0.109

SMARCAL1 (UniProt Q9NZC9)
inactive: erlotinib 0.048 | [1] 0.019 | [2] 0.06 | [3] -0.002 | [4] -0.176 | [5] 0.062 | [6] -0.032 | [7] -0.014 | [8] 0.036 | IRAK-1-4 Inhibitor I -0.066

SOX6 (UniProt P35712)
inactive: erlotinib -0.034 | [1] -0.112 | [2] -0.183 | [3] 0.209 | [4] -0.139 | [5] -0.046 | [6] -0.227 | [7] -0.071 | [8] 0.071 | IRAK-1-4 Inhibitor I -0.006

SNX14 (UniProt Q9Y5W7)
inactive: erlotinib 0.121 | [1] -0.02 | [2] 0.108 | [3] 0.036 | [4] 0.007 | [5] 0.094 | [6] -0.032 | [7] -0.013 | [8] 0.124 | IRAK-1-4 Inhibitor I 0.159

SNX8 (UniProt Q9Y5X2)
inactive: erlotinib 0.024 | [1] -0.063 | [2] -0.044 | [3] 0.033 | [4] 0.009 | [5] -0.008 | [6] 0.024 | [7] 0.057 | [8] -0.003 | IRAK-1-4 Inhibitor I -0.005

SMYD4 (UniProt Q8IYR2)
inactive: erlotinib 0.151 | [2] 0.015 | [5] -0.022 | IRAK-1-4 Inhibitor I 0.244

SNX29 (UniProt Q8TEQ0)
inactive: erlotinib -0.03 | [2] -0.047 | [5] -0.051 | [7] 0.079 | [8] 0.038 | IRAK-1-4 Inhibitor I -0.017

SOX12 (UniProt O15370)
inactive: [1] -0.476 | [3] -0.003 | [4] -0.056 | [6] 0.207

SMPD4 isoform 4 (UniProt Q9NXE4)
inactive: [1] -0.178 | [3] 0.086 | [4] 0.055 | [5] -0.252 | [6] -0.158 | [7] -0.014 | [8] 0.089 | IRAK-1-4 Inhibitor I -0.314
